This is an account of results in paper PMC9458560.

Chains of the proteins cited; added tags and fusions are not shown.
UniProt P05429: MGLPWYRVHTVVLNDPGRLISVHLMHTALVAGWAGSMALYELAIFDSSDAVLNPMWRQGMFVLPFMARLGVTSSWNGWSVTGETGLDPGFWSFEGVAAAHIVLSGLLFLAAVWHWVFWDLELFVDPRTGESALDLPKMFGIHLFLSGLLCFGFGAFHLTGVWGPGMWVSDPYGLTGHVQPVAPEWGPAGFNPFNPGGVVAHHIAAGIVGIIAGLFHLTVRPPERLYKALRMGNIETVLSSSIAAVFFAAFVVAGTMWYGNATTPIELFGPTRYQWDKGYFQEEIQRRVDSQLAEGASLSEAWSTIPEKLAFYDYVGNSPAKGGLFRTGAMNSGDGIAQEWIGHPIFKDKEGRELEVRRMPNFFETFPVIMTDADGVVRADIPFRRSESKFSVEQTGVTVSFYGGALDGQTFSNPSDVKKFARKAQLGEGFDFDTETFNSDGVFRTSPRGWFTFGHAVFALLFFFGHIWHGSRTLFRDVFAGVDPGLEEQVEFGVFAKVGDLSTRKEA
UniProt P14835: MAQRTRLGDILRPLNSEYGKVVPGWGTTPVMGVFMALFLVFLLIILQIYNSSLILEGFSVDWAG

No constants are given. Whether binding was seen depends on the method and setting. In cells and extracts the contact can be indirect. A yes stands for co-enrichment or nearness to the bait. Other partners may have been found. For some assays here: No binding means not detected with the bait. Sequences can lack the tags named with a protein.

To fix the notation:
T1: C-terminal FLAG-tagged Psb28 (Synechocystis sp. PCC 6803) (UniProt Q55356)
T1 sequence: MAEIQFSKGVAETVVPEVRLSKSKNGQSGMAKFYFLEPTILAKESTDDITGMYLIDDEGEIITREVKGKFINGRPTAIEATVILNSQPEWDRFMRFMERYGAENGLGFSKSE

T2: N-terminally FLAG-tagged Psb34 (Synechocystis sp. PCC 6803) (UniProt P74067)
T2 sequence: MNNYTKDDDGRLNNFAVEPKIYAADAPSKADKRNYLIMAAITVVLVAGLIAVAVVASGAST

B1: Psb34 protein (encoded by the ssl1498 gene) (protein, UniProt P74067 1-61)
chain: MNNYTKDDDGRLNNFAVEPKIYAADAPSKADKRNYLIMAAITVVLVAGLIAVAVVASGAST
B2: HliA (protein, UniProt P73183 1-70)
chain: MTTRGFRLDQDNRLNNFAIEPEVYVDSSVQAGWTKYAEKMNGRFAMIGFASLLIMEVVTGHGVIGWLNSL
B3: PsbO (protein, UniProt P10549 29-274)
chain: VDKSQLTYDDIVNTGLANVCPEISSFTRGTIEVEPNTKYFVSDFCMEPQEYFVKEEPVNKRQKAEYVKGKVLTRQTTSLEQIRGSIAVGADGTLTFKEKDGIDFQPITVLLPGGEEVPFFFTVKNFTGTTEPGFTSINSSTDFVGDFNVPSYRGAGFLDPKARGLYTGYDNAVALPSAADKFRTNKKETPLGKGTLSLQVTQVDGSTGEIAGIFESEQPSDTDLGAKEPLDVKVRGIFYGRVDTDV
B4: PsbV (protein, UniProt Q55013 26-160)
chain: VELTESTRTIPLDEAGGTTTLTARQFTNGQKIFVDTCTQCHLQGKTKTNNNVSLGLADLAGAEPRRDNVLALVEFLKNPKSYDGEDDYSELHPNISRPDIYPEMRNYTEDDIFDVAGYTLIAPKLDERWGGTIYF
B5: Psb27 (protein, UniProt P74367 25-134)
chain: CDSGTGLTGNYSQDTLTVIATLREAIDLPQDAPNRQEVQDTARGQINDYISRYRRKGDAGGLKSFTTMQTALNSLAGYYTSYGARPIPEKLKKRLQLEFTQAERSIERGV
B6: Psb28 (protein, UniProt Q55356 1-112)
chain: MAEIQFSKGVAETVVPEVRLSKSKNGQSGMAKFYFLEPTILAKESTDDITGMYLIDDEGEIITREVKGKFINGRPTAIEATVILNSQPEWDRFMRFMERYGAENGLGFSKSE
B7: HliB (protein, UniProt P73429 1-70)
chain: MTSRGFRLDQDNRLNNFAIEPPVYVDSSVQAGWTEYAEKMNGRFAMIGFVSLLAMEVITGHGIVGWLLSL

The target of the first experiment is T1, C-terminal FLAG-tagged Psb28 (Synechocystis sp. PCC 6803). Put plainly: affinity purification with mass spectrometry; Psb28-FLAG preparation (isolated earlier, Bečková et al. 2017) separated by 2D-CN/SDS-PAGE, Coomassie Blue stain, designated proteins determined by MS; 0.5 µg Chl loaded.
In the case of B1, the binding entry was “binds”.

A further experiment has as its target T2, N-terminally FLAG-tagged Psb34 (Synechocystis sp. PCC 6803). Put plainly: affinity purification with mass spectrometry; FLAG-Psb34 pull-down (anti-FLAG M2 affinity gel) from β-DDM-solubilised membranes of FLAG-Psb34/∆Psb34 cells exposed to high light for 2 h; whole preparation acetone-precipitated, trypsin digest, LC-MS/MS.
Consider CP43 (from UniProt P09193 1-460), for which the binding result is on record as “binds”.

In the case of CP47 (from UniProt P05429 1-507), the binding result is recorded as “binds”.

In the case of “Psb35 protein (Synechocystis sp. PCC 6803)”, the binding result is on record as “no binding”.

Regarding PsbH (from UniProt P14835 1-64), the binding result was “binds”.

Turning to B2, the binding entry was “no binding”.

Take B3: the binding result was “binds”.

On to B4, for which the binding entry is “binds”.

As to B5, the binding entry is listed as “binds”.

As to B6, the binding entry was “binds”.

B7: the binding result was “no binding”.
